Reference: patent US20200297842A1 (published 2020)
These are yes or no findings as the source states them, for the method shown. Some binding calls cover weakened binding; strength is not graded here.

Protein sequences, listed by entry. Tags and fused reporters are not part of them. Residues count along the entry.
UniProt P78324, residues 31-504: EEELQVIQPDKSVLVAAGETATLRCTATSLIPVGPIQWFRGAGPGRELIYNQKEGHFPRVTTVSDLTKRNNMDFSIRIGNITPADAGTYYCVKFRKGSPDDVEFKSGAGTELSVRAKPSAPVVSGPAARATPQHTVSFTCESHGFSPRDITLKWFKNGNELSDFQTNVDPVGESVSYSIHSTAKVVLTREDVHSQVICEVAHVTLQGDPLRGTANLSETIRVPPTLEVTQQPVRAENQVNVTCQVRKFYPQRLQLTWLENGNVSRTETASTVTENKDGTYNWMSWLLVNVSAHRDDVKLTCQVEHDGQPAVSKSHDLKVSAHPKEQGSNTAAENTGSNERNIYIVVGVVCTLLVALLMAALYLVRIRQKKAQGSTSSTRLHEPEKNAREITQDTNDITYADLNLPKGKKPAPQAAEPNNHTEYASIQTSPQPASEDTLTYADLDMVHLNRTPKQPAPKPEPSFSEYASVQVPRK

B1: SIRP3 (antibody, mouse IgG1, kappa, V domains shown)
VH: EVQLQQSGPEVVKPGASVKMSCKASGYTFTSYVMHWVKQKPGQGLEWIGYINPYNDGPKYNEKFKGKATLTSDKSSSTAYMELSSLTSEDSAVYFCARWDYFNSASGFAFWGQGTLVTVSA
VL: EIVLTQSPTTMAASPGEKITIICSASSIIGSDFLHWYQQRPGFSPKFLIYRTSILASGVPTRFTGSGSGTSYSLTIGTMEAEDVATYYCQQGSGLPLTFGSGTKLEMKR
notes: Hybridoma-derived mouse mAb
B2: SIRP4 (antibody, V domains shown)
VH: EVQLQQSGPDLVKPGASVKISCKASGYSFTDYFLNWVKQSHGKSLEWIGRINPYNGDSFINQNFRDKATLTVDKSSTTAHMDLLSLTSEDSAIYYCGRGGYDGYFIAYFDYWGQGSLVTVSA
VL: DIKLTQSQSSMYSSLGQRVTITCKASQDINSHLSWFQEKPGKSPKTLIYRANRLADGVPSRFSGSGSGQDYFLTISSLEYEDVGIYYCLQYDEFPYTFGGGTKLEIK
notes: detected with anti-mouse secondary antibody in the cell assays
B3: SIRP5 (antibody, V domains shown)
VH: QVQLQQSAAELARPGASVKMSCKASGYTFTSYTMHWVKQRPGQGLEWIGYINPTIGYTEYNQKFKDKTTLTADKSSSTAYMQLSSLTSEDSAVYYCVRLVITSVLGRAMDYWGQGTSVTVSS
VL: QIVLTQSPALMSASPGEKVTMTCSASSSVSYMYWFQQKPRSSPKPWIYLTSNLASGVPARFSGSGSGTSYSLTISSMEAEDAATYYCQQWSGNPFTFGSGTKLEIK
B4: SIRP9 (antibody, V domains shown)
VH: EVQLQESGAELVRPGASVKLSCKALGYTFTDYEIHWVKETPVYGLEWIGDIHPGSGGTANNQKFKGKATLTADKSSNTAYMELSSLTSEDSAVYYCTRAVSGYYAMDYWGQGTSVTVSS
VL: DIQMTQSSSSFSGSLGDRLTINCKASEDIYDRVAWYQQKPGNAPRLLISGTASLETGVLSRFSGSGSGKDYTLSINGLQAEDVATYYCQQYWTTPWTFGGGTKLEIK
notes: as for B2
B5: SIRP2 (antibody, mouse IgG1, kappa, V domains shown)
VH: EVKLVESGGGLVQPGGSLKLSCAASGFSFSGCTMSWIRQTPERRLEWVAYISNGGDITYYPDTVKGRFTISRDNAKNSLYLQMSSLKSEDTAMYYCARLDGYYYAMDFWGQGTSVTVSS
VL: DILLTQSPAILSVSPGERVSFSCRASQSIGTSIHWYQQRTNGSPRLLIKYGSESISGIPSRFSGSGSGTDFTLSINSVESEDIADYYCQQSNTWPLTFGDGTKLELKR
notes: Hybridoma-derived mouse mAb

Molecular target: T1, human SIRPα expressed on cells (human, UniProt P78324 31-504)
T1 construct: whole, on cells; Endogenous SIRPα of THP-1 cells and of donor-derived macrophages and dendritic cells; also called SIRPα expressing THP-1 cells; cell-expressed SIRPα on dendritic cells and/or macrophages
Assay: flow cytometry on human macrophages and/or dendritic cells

binding, binds:
B1, B2, B3, B4

Molecular target: T1, human SIRPα expressed on cells
Assay: flow cytometry on THP-1 cells (FIG. 2)

binding, binds:
B1, B5
